Experimental findings from the supplement of paper PMC12764529 are described below.

± gives the half width of the 95% confidence interval. The two proteases of the assay disagree for many of these sequences.

A short description of data set [1]: folding stability dG unfold from trypsin proteolysis; higher = more stable. The method, boiled down: (§1)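 Mini-proteins designed to be under 80 residues and free of cysteine were carried in a PA-tagged cDNA display construct and digested with trypsin and with chymotrypsin. Each protease was applied at 11 threefold-diluted concentrations, alongside a no-protease condition, before sequencing. K50 came from Bayesian fitting of the sequencing counts, and unfolding free energy was obtained by comparing it with a sequence-predicted unfolded-state K50 and a shared folded-state K50, for each protease separately or for both together. Designs were retained only if their AlphaFold2 dimer inter-PAE exceeded 15.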

A short description of data set [2]: folding stability dG unfold (combined trypsin and chymotrypsin); higher = more stable. Put shortly:
as §1

Data set [3] can be described thus: folding stability dG unfold from chymotrypsin proteolysis; higher = more stable. The method, boiled down:
as §1

As to “SAGGSAGGSAGGKVSIEEIKPLKVLPNGKVLVVMKLKFTEENGPEIGEIDLLFVFDDKGSAGGSAGGSAGGS [r10_941_TrMRF]”, the “folding stability dG unfold” value in data set [1] turned out to be 0.068 ± 0.19 kcal/mol; in data set [2], 1.58 ± 0.51 kcal/mol; in data set [3], 2.23 ± 0.15 kcal/mol.

In the case of “SAMTPEFFETIKEASREGDIAAVLEAAEAIKTEFPDTGLTVDVVIEPREDDRFVIEVRVDYPPNLEGLASAG [r14_690_TrMRF]”, the figures for the “folding stability dG unfold” value in data set [1], in data set [2] and in data set [3] were -0.142 ± 0.039 kcal/mol, -0.0704 ± 0.18 kcal/mol and -0.212 ± 0.11 kcal/mol, respectively.

As for “SAGGMTVTLTVPSPEEAEAAARAIAEELRAAHPEAEVVVRPLAVVPDPATGTYTVTVPITVRLPDEPLSAGG [r13_585_JUSTAS]”, the entries for the “folding stability dG unfold” value in data set [1], in data set [2] and in data set [3] were -0.437 ± 0.32 kcal/mol, 1.59 ± 0.078 kcal/mol and 1.99 ± 0.047 kcal/mol, respectively.

Turning to “SAGMKKVIELTIPVTGPEEVEELVAKLEEEEPAVPVERRPDPRLGAVRVVVEKKFPDSIVYITLTAAASAGG [r19_262_JUSTAS]”, the “folding stability dG unfold” value in data set [1] is 0.784 ± 0.042 kcal/mol; in data set [2], 0.677 ± 0.065 kcal/mol; in data set [3], 0.496 ± 0.071 kcal/mol.

With “SAGGSYTMGMKFEFHFFTLGRSPDGQWSMGMYPIEIEIEVPVPPPPPPPPITPEEAAEKNGNPGDVSAGGSA [r2_340_TrROS]”, the figures for the “folding stability dG unfold” value in data set [1], in data set [2] and in data set [3] were 1.71 ± 0.13 kcal/mol, 3.71 ± 0.37 kcal/mol and 4.44 ± 0.24 kcal/mol, respectively.

On to “SAGGSAGGSMELVIPKEEVEKMSEEVVKKIKELAKKANISISETEDSLVIPIKKVSEKVIKELSAGGSAGGS [r12_945_JUSTAS]”, for which the “folding stability dG unfold” value in data set [1] is -0.325 ± 0.075 kcal/mol; in data set [2], 0.232 ± 0.1 kcal/mol; in data set [3], 0.497 ± 0.045 kcal/mol.

As for “SAGGSAGGSAGGSAPPKVEIEVTVLVKDEDGRLYVFKAKATFDLETNELTVEVEVYELPSAGGSAGGSAGGS [r4_445_TrROS_Hall]”, the “folding stability dG unfold” value was determined as 3.22 ± 0.39 kcal/mol in data set [1], 4.66 ± 0.35 kcal/mol in data set [2] and 4.79 ± 0.13 kcal/mol in data set [3].

As to “SAGGSAKEVKIKVEVKYNKETKKYVIKVTVTDKNGKKKTVEIVIENMTKEEIEKKAKELAKELIKKSAGGSA [r15_526_TrROS_Hall]”, the “folding stability dG unfold” value in data set [1] was found to be 1.36 ± 0.11 kcal/mol; in data set [2] it was 3.6 ± 0.4 kcal/mol; in data set [3] it was 4.28 ± 0.22 kcal/mol.

Regarding “SAGGNLKIEIEEVYYNPENGILVIMIKISQTYTVPPGELKDPDGKEMPPGATIKVEMYIMIVIFPENSAGGS [r8_262_TrROS]”, the “folding stability dG unfold” value in data set [1] is 3.14 ± 0.18 kcal/mol; in data set [2] it was 5.05 ± 0.22 kcal/mol; in data set [3] it was 5.27 ± 0.28 kcal/mol.

For the sequence “SAGGSAGGELPEGAEVELVEVDGKLYLVVRFPDGTIQVFELKDGKLEPVKTIKVKPGDVILIELSAGGSAGG [r6_475_TrROS_Hall]”, the “folding stability dG unfold” value came to 1.7 ± 0.052 kcal/mol in data set [1], 3.4 ± 0.084 kcal/mol in data set [2] and 3.77 ± 0.043 kcal/mol in data set [3].

In the case of “SAGGETVTIEIKLEDGKTIRITYTKNPETGEYTVTVTIVDKETKEVVKTYTFTSLEEAEKAIKEGLLSAGGS [r8_450_TrROS_Hall]”, the “folding stability dG unfold” value in data set [1] amounted to 3.39 ± 0.13 kcal/mol; in data set [2], 5.66 ± 0.16 kcal/mol; in data set [3], 5.68 ± 0.091 kcal/mol.

Turning to “SMKVVKLYTDPEGRVVIEITLPKPDGTPVSEEEAKAIADEIAAELKPKYPNATFEITYDPKTGVVTITIGSA [r9_485_JUSTAS]”, the “folding stability dG unfold” value in data set [1] is 3.49 ± 0.13 kcal/mol; in data set [2] it was 2.97 ± 0.1 kcal/mol; in data set [3], 2.51 ± 0.053 kcal/mol.

In the case of “SGMSMAKDAKPIYIEYRDPNGKSYRVTEVKVNEDGTLTITIEYPDSIKTYTLPPNANYPLSSSLILSTVESA [r9_993_JUSTAS]”, the “folding stability dG unfold” value in data set [1] was 1.4 ± 0.076 kcal/mol; in data set [2], 1.45 ± 0.14 kcal/mol; in data set [3], 1.43 ± 0.13 kcal/mol.

Turning to “SAGGGPVTEETYTIKRPDGTELVVTRYYFPGTGETVVRIYPPSTKTPLSTVPLSEASPELLAEIARRSAGGS [r8_32_JUSTAS]”, the “folding stability dG unfold” value was found to be 1.2 ± 0.027 kcal/mol in data set [1], 1.79 ± 0.03 kcal/mol in data set [2] and 2.108 ± 0.013 kcal/mol in data set [3].

For the sequence “SAGGSAGGSAGAPELAPLPRVVPRFILVNASPELAPELAERFGADRVIFLPDGSLLIFTTSAGGSAGGSAGG [r11_64_TrMRF]”, the “folding stability dG unfold” value in data set [1] is -0.132 ± 0.031 kcal/mol; in data set [2] it was 1.51 ± 0.026 kcal/mol; in data set [3], 1.981 ± 0.019 kcal/mol.

“SEEEIYVVEIKVKVKNENGEERTFTISVPLEEMTEEELRELLRELFPDVEEVEIEVKVTPIKLSEEEIEKSA [r9_841_TrROS_Hall]”: the “folding stability dG unfold” value in data set [1] came to 1.59 ± 0.1 kcal/mol; in data set [2], 3.48 ± 0.28 kcal/mol; in data set [3], 4.08 ± 0.16 kcal/mol.

With “SAADPVTVTATFPLTVTTTRLVGLSPDGTPVYRTEPRTLTLTFTATVPADPELVEEALRAAAEAAEALGSAG [r14_223_TrMRF]”, the “folding stability dG unfold” value in data set [1] worked out at 0.0216 ± 0.18 kcal/mol; in data set [2] it was 2.45 ± 0.11 kcal/mol; in data set [3], 3.22 ± 0.069 kcal/mol.

Take “SAGGSAKKKKKKPVVKEVTLVIKIKVKSEEEAKKLAEELKKLFPNAKVELVEKKKDGYYVIKITFKSAGGSA [r15_387_TrROS_Hall]”: the “folding stability dG unfold” value in data set [1] stood at 1.59 ± 0.083 kcal/mol; in data set [2] it was 3.19 ± 0.3 kcal/mol; in data set [3] it was 3.6 ± 0.15 kcal/mol.
